Source: patent publication US20210214444A1 (TAYU HUAXIA BIOTECH MEDICAL GROUP, published 2021)
No constants are given. Whether binding was seen depends on the method and setting. Some entries that bind do so weakly or less than the wild type.

The chains behind the UniProt entries cited, without tags or fusion partners. Where a name states a change or a piece, a line headed by the entry shows the natural chain unless it says otherwise.
UniProt Q9NZQ7: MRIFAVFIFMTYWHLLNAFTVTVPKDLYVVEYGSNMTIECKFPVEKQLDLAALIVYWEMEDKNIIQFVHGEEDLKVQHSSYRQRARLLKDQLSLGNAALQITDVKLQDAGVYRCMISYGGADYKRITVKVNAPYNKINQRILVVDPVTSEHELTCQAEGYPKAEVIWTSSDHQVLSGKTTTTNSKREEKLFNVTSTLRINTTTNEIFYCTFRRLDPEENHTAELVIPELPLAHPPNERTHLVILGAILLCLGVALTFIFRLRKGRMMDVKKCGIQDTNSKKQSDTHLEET

Columns and labels:
[1] = target: human PD-L1 expressed on cells (human) (UniProt Q9NZQ7); assay: FACS, binding to hPD-L1 (cells not named)
[2] = target: human PD-L1 expressed on cells (human) (UniProt Q9NZQ7); assay: FACS on CHO/PD-L1 stable cells, anti-HuFc-PE
[3] = target: biotin-labeled hPD-L1-mouse Fc fusion protein (human) (UniProt Q9NZQ7); assay: BLI, ForteBio Octet RED96; biotin hPD-L1-mouse Fc on SA sensors
[4] = target: human PD-L1 expressed on cells (human) (UniProt Q9NZQ7); assay: FACS on hPD-L1; neither the text nor the sheet names the cells
[5] = target: human PD-L1 expressed on cells (human) (UniProt Q9NZQ7); assay: FACS on CHO/PD-L1 stable cells, 1.9-62.5 ng first antibody, 60 ng anti-HuFc-PE
[6] = target: human PD-L1 expressed on cells (human) (UniProt Q9NZQ7); assay: FACS stability test, 62.5/31/15.6 ng first antibody, 60 ng HuFc-PE; row marked Control
[7] = target: human PD-L1 expressed on cells (human) (UniProt Q9NZQ7); assay: FACS stability test, 62.5/31/15.6 ng first antibody, 60 ng HuFc-PE; row marked Control, storage temperature not given
[8] = target: human PD-L1 expressed on cells (human) (UniProt Q9NZQ7); assay: FACS stability test, 62.5/31/15.6 ng first antibody, 60 ng second antibody (label partly missing: '2nd Ab ... Fc-PE'); row marked Control
[9] = target: human PD-L1 expressed on cells (human) (UniProt Q9NZQ7); assay: competitive radioligand binding on MC38-PD-L1 cells: unlabeled anti-PD-L1 IgG1 (20-160 nM according to the text) against 68Ga-NOTA-anti-PD-L1 scFv, gamma counting

Measured: binding

B1: humanized anti-hPD-L1 antibody variant 2 (antibody, V domains shown)
VH: QVQLVQSGAEVKKPGASVKVSCKASGFNIKDTYMYWVRQAPGQGLEWMGRIDPANDNTKYAQKFQGRVTITADTSTSTAYMELSSLRSEDTAVYYCARAKNLLNYFDYWGQGTLVTVSS
VL: DIQMTQSPSSLSASVGDRVTITCRASQEISGYLSWLQQKPGKAPKRLIYATSTLQSGVPSRFSGSRSGTDYTLTISSLQPEDFATYYCLQYAIYPLTFGQGTKLEIKR
notes: Human IgG1; also called Humanized VH 1 + Humanized VL2; anti-PD-L1 IgG1
binds: all assays above
